Binding data for 21 molecules are collected here from patent US20220177596A1.

The chains behind the UniProt entries cited, without tags or fusion partners. Where a name states a change or a piece, a line headed by the entry shows the natural chain unless it says otherwise.
UniProt P25942: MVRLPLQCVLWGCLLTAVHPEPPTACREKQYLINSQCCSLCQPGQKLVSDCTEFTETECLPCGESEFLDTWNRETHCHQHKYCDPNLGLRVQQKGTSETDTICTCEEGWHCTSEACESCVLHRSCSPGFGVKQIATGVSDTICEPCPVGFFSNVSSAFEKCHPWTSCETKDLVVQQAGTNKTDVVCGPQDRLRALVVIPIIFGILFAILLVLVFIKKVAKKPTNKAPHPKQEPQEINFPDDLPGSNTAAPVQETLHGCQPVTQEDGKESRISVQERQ

The assay addresses human-CD40 monomer (human) (UniProt P25942). In words: SPR 2 pt screen.

Results are given in words; binding and its absence hold for the method and conditions named. Some entries that bind do so weakly or less than the wild type.

B1: humanized Y1238 hz1 (hz-HC1 / hz-LC1), IgG1.3f (antibody, V domains shown)
VH: QVQLVQSGAEVKKPGASVKVSCKASGYAFTNYLIEWVRQAPGQGLEWMGVINPGSGGTNYNEKFKGRVTMTRDTSISTAYMELSRLRSDDTAVYYCARSQLGRRFDYWGQGTLVTVSS
VL: DIQMTQSPSSLSASVGDRVTITCKASQDVRTGVAWYQQKPGKAPKLLIYSASYRNTGVPSRFSGSGSGTDFTFTISSLQPEDIATYYCQQHYSPPYTFGGGTKVEIK
Regarding B1, the binding entry was “binds”.

B2: humanized Y1238 hz16 (hz-HC4 / hz-LC1), IgG1.3f (antibody, V domains shown)
VH: QVQLVQSGAEVKKPGASVKVSCKASGYAFTNYLIEWVRQAPGQGLEWMGVINPGSGGTNYNEKFKGRVTMTADKSISTAYMELSRLRSDDTAVYYCARSQLGRRFDYWGQGTLVTVSS
VL: DIQMTQSPSSLSASVGDRVTITCKASQDVRTGVAWYQQKPGKAPKLLIYSASYRNTGVPSRFSGSGSGTDFTFTISSLQPEDIATYYCQQHYSPPYTFGGGTKVEIK
Regarding B2, the binding entry is “binds”.

B3: humanized Y1238 hz25 (hz-HC5 / hz-LC5), IgG1.3f (antibody, V domains shown)
VH: QVQLVQSGAEVKKPGASVKVSCKASGYAFTNYLIEWVRQRPGQGLEWMGVINPGSGGTNYNEKFKGRVTMTADKSISTAYMELSRLRSDDTAVYYCARSQLGRRFDYWGQGTLVTVSS
VL: DIQMTQSPSSLSASVGDRVTITCKASQDVRTGVAWYQQKPGQAPKLLIYSASYRNTGVPSRFSGSRSGTDFTFTISSLQPEDIAVYYCQQHYSPPYTFGGGTKVEIK
On to B3, for which the binding result is listed as “binds”.

B4: humanized Y1238 hz10 (hz-HC2 / hz-LC5), IgG1.3f (antibody, V domains shown)
VH: QVQLVQSGAEVKKPGASVKVSCKASGYAFTNYLIEWVRQAPGQGLEWMGVINPGSGGTNYNEKFKGRVTMTADTSISTAYMELSRLRSDDTAVYYCARSQLGRRFDYWGQGTLVTVSS
VL: DIQMTQSPSSLSASVGDRVTITCKASQDVRTGVAWYQQKPGQAPKLLIYSASYRNTGVPSRFSGSRSGTDFTFTISSLQPEDIAVYYCQQHYSPPYTFGGGTKVEIK
For B4, the binding entry is recorded as “binds”.

B5: humanized Y1238 hz24 (hz-HC5 / hz-LC4), IgG1.3f (antibody, V domains shown)
VH: QVQLVQSGAEVKKPGASVKVSCKASGYAFTNYLIEWVRQRPGQGLEWMGVINPGSGGTNYNEKFKGRVTMTADKSISTAYMELSRLRSDDTAVYYCARSQLGRRFDYWGQGTLVTVSS
VL: DIQMTQSPSSLSASVGDRVTITCKASQDVRTGVAWYQQKPGQSPKLLIYSASYRNTGVPSRFSGSRSGTDFTFTISSLQAEDIAVYYCQQHYSPPYTFGGGTKVEIK
B5: the binding entry was “binds”.

B6: humanized Y1238 hz21 (hz-HC5 / hz-LC1), IgG1.3f (antibody, V domains shown)
VH: QVQLVQSGAEVKKPGASVKVSCKASGYAFTNYLIEWVRQRPGQGLEWMGVINPGSGGTNYNEKFKGRVTMTADKSISTAYMELSRLRSDDTAVYYCARSQLGRRFDYWGQGTLVTVSS
VL: DIQMTQSPSSLSASVGDRVTITCKASQDVRTGVAWYQQKPGKAPKLLIYSASYRNTGVPSRFSGSGSGTDFTFTISSLQPEDIATYYCQQHYSPPYTFGGGTKVEIK
With B6, the binding result was “binds”.

B7: humanized Y1238 hz23 (hz-HC5 / hz-LC3), IgG1.3f (antibody, V domains shown)
VH: QVQLVQSGAEVKKPGASVKVSCKASGYAFTNYLIEWVRQRPGQGLEWMGVINPGSGGTNYNEKFKGRVTMTADKSISTAYMELSRLRSDDTAVYYCARSQLGRRFDYWGQGTLVTVSS
VL: DIQMTQSPSSLSASVGDRVTITCKASQDVRTGVAWYQQKPGQSPKLLIYSASYRNTGVPSRFSGSRSGTDFTFTISSLQPEDIAVYYCQQHYSPPYTFGGGTKVEIK
In the case of B7, the binding entry is “binds”.

B8: humanized Y1238 hz20 (hz-HC4 / hz-LC5), IgG1.3f (antibody, V domains shown)
VH: QVQLVQSGAEVKKPGASVKVSCKASGYAFTNYLIEWVRQAPGQGLEWMGVINPGSGGTNYNEKFKGRVTMTADKSISTAYMELSRLRSDDTAVYYCARSQLGRRFDYWGQGTLVTVSS
VL: DIQMTQSPSSLSASVGDRVTITCKASQDVRTGVAWYQQKPGQAPKLLIYSASYRNTGVPSRFSGSRSGTDFTFTISSLQPEDIAVYYCQQHYSPPYTFGGGTKVEIK
Regarding B8, the binding entry is “binds”.

B9: humanized Y1238 hz4 (hz-HC1 / hz-LC4), IgG1.3f (antibody, V domains shown)
VH: QVQLVQSGAEVKKPGASVKVSCKASGYAFTNYLIEWVRQAPGQGLEWMGVINPGSGGTNYNEKFKGRVTMTRDTSISTAYMELSRLRSDDTAVYYCARSQLGRRFDYWGQGTLVTVSS
VL: DIQMTQSPSSLSASVGDRVTITCKASQDVRTGVAWYQQKPGQSPKLLIYSASYRNTGVPSRFSGSRSGTDFTFTISSLQAEDIAVYYCQQHYSPPYTFGGGTKVEIK
For the molecule B9, the binding entry is “binds”.

B10: humanized Y1238 hz26 (hz-HC6 / hz-LC1), IgG1.3f (antibody, V domains shown)
VH: QVQLVQSGAEVKKPGASVKVSCKASGYAFTNYLIEWVRQRPGQGLEWMGVINPGSGGTNYNEKFKGRVTLTADKSISTAYMELSRLRSDDTAVYYCARSQLGRRFDYWGQGTLVTVSS
VL: DIQMTQSPSSLSASVGDRVTITCKASQDVRTGVAWYQQKPGKAPKLLIYSASYRNTGVPSRFSGSGSGTDFTFTISSLQPEDIATYYCQQHYSPPYTFGGGTKVEIK
For the molecule B10, the binding result is recorded as “binds”.

B11: humanized Y1238 hz2 (hz-HC1 / hz-LC2), IgG1.3f (antibody, V domains shown)
VH: QVQLVQSGAEVKKPGASVKVSCKASGYAFTNYLIEWVRQAPGQGLEWMGVINPGSGGTNYNEKFKGRVTMTRDTSISTAYMELSRLRSDDTAVYYCARSQLGRRFDYWGQGTLVTVSS
VL: DIQMTQSPSSLSASVGDRVTITCKASQDVRTGVAWYQQKPGKAPKLLIYSASYRNTGVPSRFSGSRSGTDFTFTISSLQPEDIATYYCQQHYSPPYTFGGGTKVEIK
For the molecule B11, the binding result is “binds”.

B12: humanized Y1238 hz5 (hz-HC1 / hz-LC5), IgG1.3f (antibody, V domains shown)
VH: QVQLVQSGAEVKKPGASVKVSCKASGYAFTNYLIEWVRQAPGQGLEWMGVINPGSGGTNYNEKFKGRVTMTRDTSISTAYMELSRLRSDDTAVYYCARSQLGRRFDYWGQGTLVTVSS
VL: DIQMTQSPSSLSASVGDRVTITCKASQDVRTGVAWYQQKPGQAPKLLIYSASYRNTGVPSRFSGSRSGTDFTFTISSLQPEDIAVYYCQQHYSPPYTFGGGTKVEIK
For the molecule B12, the binding entry is reported as “binds”.

B13: humanized Y1238 hz6 (hz-HC2 / hz-LC1), IgG1.3f (antibody, V domains shown)
VH: QVQLVQSGAEVKKPGASVKVSCKASGYAFTNYLIEWVRQAPGQGLEWMGVINPGSGGTNYNEKFKGRVTMTADTSISTAYMELSRLRSDDTAVYYCARSQLGRRFDYWGQGTLVTVSS
VL: DIQMTQSPSSLSASVGDRVTITCKASQDVRTGVAWYQQKPGKAPKLLIYSASYRNTGVPSRFSGSGSGTDFTFTISSLQPEDIATYYCQQHYSPPYTFGGGTKVEIK
In the case of B13, the binding entry is “binds”.

B14: humanized Y1238 hz18 (hz-HC4 / hz-LC3), IgG1.3f (antibody, V domains shown)
VH: QVQLVQSGAEVKKPGASVKVSCKASGYAFTNYLIEWVRQAPGQGLEWMGVINPGSGGTNYNEKFKGRVTMTADKSISTAYMELSRLRSDDTAVYYCARSQLGRRFDYWGQGTLVTVSS
VL: DIQMTQSPSSLSASVGDRVTITCKASQDVRTGVAWYQQKPGQSPKLLIYSASYRNTGVPSRFSGSRSGTDFTFTISSLQPEDIAVYYCQQHYSPPYTFGGGTKVEIK
As to B14, the binding entry is “binds”.

B15: humanized Y1238 hz17 (hz-HC4 / hz-LC2), IgG1.3f (antibody, V domains shown)
VH: QVQLVQSGAEVKKPGASVKVSCKASGYAFTNYLIEWVRQAPGQGLEWMGVINPGSGGTNYNEKFKGRVTMTADKSISTAYMELSRLRSDDTAVYYCARSQLGRRFDYWGQGTLVTVSS
VL: DIQMTQSPSSLSASVGDRVTITCKASQDVRTGVAWYQQKPGKAPKLLIYSASYRNTGVPSRFSGSRSGTDFTFTISSLQPEDIATYYCQQHYSPPYTFGGGTKVEIK
For the molecule B15, the binding entry is on record as “binds”.

B16: humanized Y1238 hz9 (hz-HC2 / hz-LC4), IgG1.3f (antibody, V domains shown)
VH: QVQLVQSGAEVKKPGASVKVSCKASGYAFTNYLIEWVRQAPGQGLEWMGVINPGSGGTNYNEKFKGRVTMTADTSISTAYMELSRLRSDDTAVYYCARSQLGRRFDYWGQGTLVTVSS
VL: DIQMTQSPSSLSASVGDRVTITCKASQDVRTGVAWYQQKPGQSPKLLIYSASYRNTGVPSRFSGSRSGTDFTFTISSLQAEDIAVYYCQQHYSPPYTFGGGTKVEIK
For the molecule B16, the binding result is “binds”.

B17: humanized Y1238 hz8 (hz-HC2 / hz-LC3), IgG1.3f (antibody, V domains shown)
VH: QVQLVQSGAEVKKPGASVKVSCKASGYAFTNYLIEWVRQAPGQGLEWMGVINPGSGGTNYNEKFKGRVTMTADTSISTAYMELSRLRSDDTAVYYCARSQLGRRFDYWGQGTLVTVSS
VL: DIQMTQSPSSLSASVGDRVTITCKASQDVRTGVAWYQQKPGQSPKLLIYSASYRNTGVPSRFSGSRSGTDFTFTISSLQPEDIAVYYCQQHYSPPYTFGGGTKVEIK
For B17, the binding entry is “binds”.

B18: humanized Y1238 hz22 (hz-HC5 / hz-LC2), IgG1.3f (antibody, V domains shown)
VH: QVQLVQSGAEVKKPGASVKVSCKASGYAFTNYLIEWVRQRPGQGLEWMGVINPGSGGTNYNEKFKGRVTMTADKSISTAYMELSRLRSDDTAVYYCARSQLGRRFDYWGQGTLVTVSS
VL: DIQMTQSPSSLSASVGDRVTITCKASQDVRTGVAWYQQKPGKAPKLLIYSASYRNTGVPSRFSGSRSGTDFTFTISSLQPEDIATYYCQQHYSPPYTFGGGTKVEIK
For the molecule B18, the binding result is recorded as “binds”.

B19: humanized Y1238 hz19 (hz-HC4 / hz-LC4), IgG1.3f (antibody, V domains shown)
VH: QVQLVQSGAEVKKPGASVKVSCKASGYAFTNYLIEWVRQAPGQGLEWMGVINPGSGGTNYNEKFKGRVTMTADKSISTAYMELSRLRSDDTAVYYCARSQLGRRFDYWGQGTLVTVSS
VL: DIQMTQSPSSLSASVGDRVTITCKASQDVRTGVAWYQQKPGQSPKLLIYSASYRNTGVPSRFSGSRSGTDFTFTISSLQAEDIAVYYCQQHYSPPYTFGGGTKVEIK
With B19, the binding result is reported as “binds”.

B20: humanized Y1238 hz7 (hz-HC2 / hz-LC2), IgG1.3f (antibody, V domains shown)
VH: QVQLVQSGAEVKKPGASVKVSCKASGYAFTNYLIEWVRQAPGQGLEWMGVINPGSGGTNYNEKFKGRVTMTADTSISTAYMELSRLRSDDTAVYYCARSQLGRRFDYWGQGTLVTVSS
VL: DIQMTQSPSSLSASVGDRVTITCKASQDVRTGVAWYQQKPGKAPKLLIYSASYRNTGVPSRFSGSRSGTDFTFTISSLQPEDIATYYCQQHYSPPYTFGGGTKVEIK
With B20, the binding entry was “binds”.

B21: humanized Y1238 hz3 (hz-HC1 / hz-LC3), IgG1.3f (antibody, V domains shown)
VH: QVQLVQSGAEVKKPGASVKVSCKASGYAFTNYLIEWVRQAPGQGLEWMGVINPGSGGTNYNEKFKGRVTMTRDTSISTAYMELSRLRSDDTAVYYCARSQLGRRFDYWGQGTLVTVSS
VL: DIQMTQSPSSLSASVGDRVTITCKASQDVRTGVAWYQQKPGQSPKLLIYSASYRNTGVPSRFSGSRSGTDFTFTISSLQPEDIAVYYCQQHYSPPYTFGGGTKVEIK
As to B21, the binding entry is recorded as “binds”.
